In PubChem BioAssay AID328 (DTP/NCI, 2004):
The list shows only some results of the screen, not a fair sample: it gathers tests that were run many times, whatever their T/C, doses with no T/C, and many T/C values between a quarter and a half above the control. Other doses and runs of a compound stand elsewhere. T/C is the treated group as % of the vehicle group. Some doses have a count of surviving animals in place of a T/C: the source holds a T/C of zero for them, seemingly a mark for toxic or unscored doses. Some doses without a T/C left all or most animals alive at the check, yet need not have been tolerated: the source hardly ever lists a survival T/C far under the control, and the zero likely stands for such cases as well. Survivors were counted at the toxicity check, usually on the fifth day, unless a day is given; later deaths do not show. Schedule codes are those of the source, taken here to give the interval after Q, in days (D) or hours (H), and the number of doses after X. Some doses were run more than once; their values stand side by side, smallest first. For survival time, the PubChem record calls one and a half times the control and up active, and a quarter to a half above the control has no call in these data; cut-offs in other NCI protocols can differ. Some T/C values are followed by the survivors on the day toxicity was checked, most often the fifth; without a count, all were alive then.

Tested on: BDF1 mice, P388 leukemia ip, median survival T/C
Test: NCI In Vivo Anticancer Drug Screen. Data for tumor model P388 Leukemia (intraperitoneal) in B6D2F1 (BDF1) mice
Settings: T/C endpoint: median survival time, higher T/C = longer survival
Summary of the method: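 Vehicle-dosed animals serve as the reference; survival of compound-dosed, tumour-implanted mice is divided by it.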

[1] = dose: 50.0 mg/kg/injection, schedule: Q04DX003 (ip), vehicle: saline
[2] = dose: 6.25 mg/kg/injection, schedule: Q01DX009 (ip), vehicle: saline
[3] = dose: 25.0 mg/kg/injection, schedule: Q01DX009 (ip), vehicle: saline
[4] = dose: 50.0 mg/kg/injection, schedule: Q01DX009 (ip), vehicle: saline
[5] = dose: 50.0 mg/kg/injection, schedule: Q04DX003 (ip), vehicle: saline with Tween-80
[6] = dose: 100.0 mg/kg/injection, schedule: Q04DX003 (ip), vehicle: saline with Tween-80
[7] = dose: 200.0 mg/kg/injection, schedule: Q04DX003 (ip), vehicle: saline with Tween-80
[8] = dose: 400.0 mg/kg/injection, schedule: Q04DX003 (ip), vehicle: saline with Tween-80
[9] = dose: 400.0 mg/kg/injection, schedule: Q01DX009 (ip), vehicle: saline with Tween-80
[10] = dose: 400.0 mg/kg/injection, schedule: Q04DX003 (ip), vehicle: saline
[11] = dose: 200.0 mg/kg/injection, schedule: Q01DX009 (ip), vehicle: saline with Tween-80
[12] = dose: 200.0 mg/kg/injection, schedule: Q01DX009 (ip), vehicle: saline
[13] = dose: 50.0 mg/kg/injection, schedule: Q01DX009 (ip), vehicle: saline with Tween-80

## NC(=S)c1c(N)n(C2OC(CO)C(O)C2O)c2ncnc(N)c12 (stereo unspecified)
[1]
  T/C: 131 % of control
dose: 100.0 mg/kg/injection, schedule: Q04DX003 (ip), vehicle: saline
  T/C: 141 % of control [5 of 6 alive]

## Nc1nc(N)c2cc(N3CCCC3c3ccc(Cl)cc3)ccc2n1 (stereo unspecified)
[2]
  T/C: 125 % of control
[3]
  survivor count: 2 of 6
[4]
  survivor count: 0 of 6
dose: 100.0 mg/kg/injection, schedule: Q01DX009 (ip), vehicle: saline
  survivor count: 0 of 6
dose: 100.0 mg/kg/injection, schedule: Q04DX003 (ip), vehicle: water
  survivor count: 5 of 6
dose: 200.0 mg/kg/injection, schedule: Q04DX003 (ip), vehicle: water
  survivor count: 0 of 6
dose: 400.0 mg/kg/injection, schedule: Q04DX003 (ip), vehicle: water
  survivor count: 0 of 6

## O=C1C[C@H]2[C@H](CO)[C@@H](OC(=O)c3ccc(-c4ccccc4)cc3)C[C@H]2O1
dose: 115.0 mg/kg/injection, schedule: Q01DX009 (ip), vehicle: saline with Tween-80
  survivor count: 0 of 6

## CC(C)(C)C1COP(=O)(c2ccccc2)N(c2ccccc2)C1 (stereo unspecified)
dose: 200.0 mg/kg/injection, schedule: Q01DX005 (ip), vehicle: saline with Tween-80
  survivor count: 0 of 6

## CCCCC(OC(=O)c1ccccc1)c1cc(OC(=O)c2ccccc2)c2c(c1OC(=O)c1ccccc1)CC(C)=C(C)C2 (stereo unspecified)
[5]
  survivor count: 3 of 6
[6]
  survivor count: 2 of 6
[7]
  survivor count: 0 of 6
[8]
  survivor count: 0 of 6

## COc1ccc(C(=O)CC(c2ccc3c(c2)OCO3)c2c(O)c3ccccc3oc2=O)cc1OC (stereo unspecified)
[9]
  survivor count: 5 of 6

## C#CCSc1ncnc2nc[nH]c12
[10]
  survivor count: 0 of 6

## C=CCNCCN1CCN(CCCN2c3ccccc3Sc3ccc(C(F)(F)F)cc32)CC1
[1]
  T/C: 144 % of control

## CCCCCOC(=O)c1ccc(OP(=O)(N(C)C)N(C)C)cc1
[11]
  survivor count: 3 of 6

## CC(=O)OC1C2(CC3N4C(=O)C5(CO)SSC4(CC31O)C(=O)N5C)OC(C)C(C)(C)C2=O (stereo unspecified)
dose: 25.0 mg/kg/injection, schedule: Q01DX009 (oral), vehicle: saline
  survivor count: 1 of 6

## O=C1N(c2ccccc2)CCC12CCNCC2
[12]
  survivor count: 5 of 6

## O=Cc1[nH]c(=S)[nH]c(=O)c1Cc1cccc(Cl)c1
[11]
  T/C: 134 % of control
[9]
  T/C: 138 % of control

## CC1=C(Br)C(=O)C(Br)=C(Br)C1=O
dose: 80.0 mg/kg/injection, schedule: Q01DX009 (ip), vehicle: Klucel (hydroxypropylcellulose) (HPC)
  survivor count: 4 of 6
dose: 225.0 mg/kg/injection, schedule: Q01DX001 (ip), vehicle: Klucel (hydroxypropylcellulose) (HPC)
  survivor count: 0 of 6
dose: 340.0 mg/kg/injection, schedule: Q01DX001 (ip), vehicle: Klucel (hydroxypropylcellulose) (HPC)
  survivor count: 0 of 6

## C[CH2][Pb]([CH2]C)([CH2]C)[O]C(=O)CBr
dose: 3.0 mg/kg/injection, schedule: Q01DX009 (ip), vehicle: Klucel (hydroxypropylcellulose) (HPC)
  T/C: 136 % of control
dose: 3.0 mg/kg/injection, schedule: Q01DX009 (ip), vehicle: other
  T/C: 129 % of control
dose: 6.0 mg/kg/injection, schedule: Q01DX009 (ip), vehicle: other
  survivor count: 5 of 6

## O=C(N=Nc1c(O)[nH]c2c(Cl)cc(Cl)cc12)C(=O)Nc1cccc(C(F)(F)F)c1
[13]
  survivor count: 6 of 6

## Cc1cc(N(CCCl)CCCl)ccc1C=Nc1ccc(F)cc1
dose: 264.0 mg/kg/injection, schedule: Q04DX003 (ip), vehicle: saline with Tween-80
  T/C: 141 % of control

## CCOc1cc(/C=N\Nc2nnc(C)n2N)c(C)cc1N(CCCl)CCCl
dose: 10.0 mg/kg/injection, schedule: Q04DX003 (ip), vehicle: saline
  T/C: 145 % of control
dose: 20.0 mg/kg/injection, schedule: Q04DX003 (ip), vehicle: saline
  T/C: 145 % of control
dose: 200.0 mg/kg/injection, schedule: Q04DX003 (ip), vehicle: saline sonified
  survivor count: 5 of 6

## c1cc[c]([Pb]([c]2ccccc2)([c]2ccccc2)[n]2c3ccccc3c3ccccc32)cc1
dose: 3.12 mg/kg/injection, schedule: Q01DX009 (ip), vehicle: saline
  T/C: 127 % of control
dose: 4.12 mg/kg/injection, schedule: Q01DX009 (ip), vehicle: saline
  survivor count: 6 of 6
[2]
  T/C: 133 % of control
  survivor count: 0 of 6 and 2 of 6
dose: 9.37 mg/kg/injection, schedule: Q01DX009 (ip), vehicle: saline
  survivor count: 0 of 6 and 2 of 6

## COc1cc(OC)c(NC(=O)c2ccc([N+](=O)[O-])s2)cc1Cl
dose: 100.0 mg/kg/injection, schedule: Q01DX005 (ip), vehicle: saline
  survivor count: 6 of 6
dose: 200.0 mg/kg/injection, schedule: Q01DX005 (ip), vehicle: saline
  survivor count: 6 of 6

## CCNC(C)(C)C(=O)c1ccco1
[10]
  survivor count: 3 of 6

## Cn1nnnc1[N-]Cc1ccccc1.[Au+].c1ccc([PH+](c2ccccc2)c2ccccc2)cc1
dose: 100.0 mg/kg/injection, schedule: Q01DX001 (ip), vehicle: saline with Tween-80
  survivor count: 0 of 6

## CC1=CC2=C(C=O)C(=O)[C@](C)(O)[C@@H](O)C2=CO1
[5]
  T/C: 130 % of control
dose: 66.0 mg/kg/injection, schedule: Q04DX003 (ip), vehicle: saline with Tween-80
  T/C: 147 % of control
[6]
  T/C: 133 % of control
dose: 150.0 mg/kg/injection, schedule: Q04DX003 (ip), vehicle: Klucel (hydroxypropylcellulose) (HPC)
  survivor count: 3 of 6
dose: 150.0 mg/kg/injection, schedule: Q04DX003 (ip), vehicle: saline with Tween-80
  T/C: 133 % of control [5 of 6 alive]

## O=S1(=O)C=CCC2C3CCC(C3)C21 (stereo unspecified)
dose: 400.0 mg/kg/injection, schedule: Q01DX001 (ip), vehicle: saline with Tween-80
  survivor count: 0 of 6

## COC(=O)CC(N)C(=O)OC (stereo unspecified)
[12]
  survivor count: 5 of 6

## CC(=O)C1=C(O)C2(O)C(=O)c3c(c(C)c4ccc(C)c(O)c4c3O)CC2C(N)C1=O (stereo unspecified)
dose: 25.0 mg/kg/injection, schedule: Q01DX009 (ip), vehicle: saline with Tween-80
  survivor count: 0 of 6
[13]
  survivor count: 0 of 6
dose: 100.0 mg/kg/injection, schedule: Q01DX009 (ip), vehicle: saline with Tween-80
  survivor count: 0 of 6

## O=CNC(Cc1cccc(N(CCCl)CCCl)c1)C(=O)O (stereo unspecified)
dose: 25.0 mg/kg/injection, schedule: Q04DX003 (ip), vehicle: saline with Tween-80
  T/C: 131 % of control
dose: 37.5 mg/kg/injection, schedule: Q04DX003 (ip), vehicle: saline sonified
  T/C: 127 % of control

## CCC1CC[N-]CC1.CCC1CC[N-]CC1.[Cl][Pt+2]([Cl])([Cl])[Cl]
[3]
  survivor count: 4 of 6
[4]
  survivor count: 0 of 6

## CC1(C)COC(c2ccc(C(C)(C)C)cc2C(O)(c2cc(C(C)(C)C)ccc2C2=NC(C)(C)CO2)c2cc(C(C)(C)C)ccc2C2=NC(C)(C)CO2)=N1
[7]
  survivor count: 6 of 6

## CC1(C)OCC(C2OC3OC(C)(C)OC3C2OP(=O)(N2CC2)N2CC2)O1 (stereo unspecified)
[9]
  survivor count: 0 of 6

## Cc1nc(C(N)=O)c(=O)[nH]c1C
dose: 33.0 mg/kg/injection, schedule: Q04DX003 (ip), vehicle: saline
  survivor count: 6 of 6
dose: 50.0 mg/kg/injection, schedule: Q04DX003 (ip), vehicle: saline sonified
  T/C: 141 % of control
dose: 75.0 mg/kg/injection, schedule: Q04DX003 (ip), vehicle: saline
  survivor count: 6 of 6

## O=[N+]([O-])c1ccc(N/N=C/CC(O)CO)c([N+](=O)[O-])c1 (stereo unspecified)
dose: 400.0 mg/kg/injection, schedule: Q01DX009 (ip), vehicle: saline
  T/C: 140 % of control

## C[Si](C)(C)Nc1ncnc2c1ncn2[Si](C)(C)C
[11]
  survivor count: 6 of 6
[9]
  survivor count: 3 of 6

## OCCN=Cc1ccccc1
[8]
  survivor count: 0 of 6
